# Out of some 400,000 compounds screened, about 13,000 (3.2%) were called active. Inconclusive means that the source gave no clear call. Such entries were picked first, then a sample of the others. Calls come from the whole dose curve; as a rule, active = well fitted cell-killing curve with a large enough effect; inconclusive = small, poorly fitted or top-dose-only effect, or effect the other way; inactive = flat fitted curve, though single readings scatter. Potencies beside an inconclusive call are fits to weak or partial responses and may not hold up.
# Assay: qHTS assay for MDR1-selective chemotherapeutics: Primary screen using the drug-selected MDR subline cells KB-V1; note: nearly all actives have a fitted effect of over 60% in size
# Conditions: KB-V1 MDR cells viability, CellTiter-Glo, 72 h; activity change, negative = cytotoxicity: at 46.1 µM (top of the series)
# Procedure, shortened: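 qHTS viability screen in drug-selected KB-V1 MDR cells: 72 h compound treatment at 37 degrees C, ATP luminescence end point.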
# % is set by controls: 0 for no effect and ±100 for the full control effect; potency is the fitted concentration of half-maximal effect.
SMILES,Potency,"activity change, negative = cytotoxicity"
Cc1c(C(=O)Nc2cccc(Oc3ccccc3)c2)sc(=O)n1Cc1ccc(F)cc1,"inconclusive: 8.2 µM [cytotoxic, partial curve]",
CCN(CC)CC#CC(O)(c1ccccc1)c1ccccc1,"inconclusive: 29.1 µM [cytotoxic, partial curve, poor fit]",
O=C(Cn1c(-c2cscn2)nc2ccccc21)Nc1ccc2ccccc2c1,"inconclusive: 18.4 µM [cytotoxic, single point]",
O=C(CN(c1ccc(Br)cc1)S(=O)(=O)c1ccc(Cl)c([N+](=O)[O-])c1)NCC1CCCO1 (stereo unspecified),"inconclusive: 29.1 µM [cytotoxic, single point]",
COc1ccc(-n2nc3c(c2NC(=O)C(C)Cl)CSC3)cc1 (stereo unspecified),inactive,
COC(=O)c1sc(NC(=S)NNC(=O)c2c(Br)c(C)nn2C)c(C(=O)OC)c1C,inactive,
Cc1cc(N2CCN(c3ccccc3Cl)CC2)n2cc(-c3ccccc3)nc2n1,active: 16.4 µM,
Cc1cccc(-c2nc(SCCCOc3ccccc3Cl)n3[nH]c(=O)cc3n2)c1,inactive,
Cc1ccc(OC(C)c2nnc(N)s2)cc1Cl (stereo unspecified),"inconclusive: 23.1 µM [cytotoxic, single point]",
COc1ccc(NC(=O)c2cc(S(=O)(=O)N3CCCC3)ccc2C)cn1,inactive,
CC(C)(C)C(=O)CNS(=O)(=O)c1ccc(S(=O)(=O)NC2CC2)cc1,inactive,
CC1Cc2ccccc2N1C(=O)c1cc2c(=O)n3ccccc3nc2n1C (stereo unspecified),active: 5.8 µM,
CCOC(=O)c1ccc(NC(=O)C2CCN(C(=O)c3ccc(OC)c(OC)c3)CC2)cc1,inactive,
Cc1[nH]c(C)c2c(=O)n(Cc3ccccc3Cl)ncc12,"inconclusive: 18.4 µM [cytotoxic, partial curve]",
CC(C)c1ccc(S(=O)(=O)N2CCCCC2)cc1,"inconclusive: 1.64 µM [cytotoxic, partial curve, poor fit]",
CCn1c(C(=O)N2CCC(C(=O)N3CCN(c4cccc(C)c4C)CC3)CC2)cc2sccc21,inactive,
CCc1cccc(OCC(O)Cn2c(N3CCCCC3)nc3c2c(=O)[nH]c(=O)n3C)c1 (stereo unspecified),"inconclusive: 8.2 µM [cytotoxic, partial curve]",
COc1ccc(Cl)cc1-c1cc(C(=O)Nc2ccc(C)c(NS(C)(=O)=O)c2)[nH]n1,inactive,
O=C(CSc1nnnn1-c1cccnc1)Nc1cccc(Cl)c1,"inconclusive: 23.1 µM [cytotoxic, single point]",
COc1ccc([C@H]2C[C@@H](n3cc(COC(=O)c4ccccc4)nn3)[C@H](O)CN2Cc2cccs2)cc1,"inconclusive: 7.31 µM [cytotoxic, partial curve]",
Cc1nc2c(OCc3ccc(C#N)cc3)cccn2c1N(C)C(=O)CCC1CCCC1,"inconclusive: 29.1 µM [cytotoxic, single point]",
CCOc1cc(CNc2ccc(N(C)C)cc2)cc(Br)c1OCC(=O)NC(C)(C)C,"inconclusive: 20.6 µM [cytotoxic, partial curve, poor fit]",
CCOc1ccc(CC(=O)N/N=C/c2sccc2C)cc1,"inconclusive: 0.461 µM [rising, full curve, poor fit]",

# By substructure: the entries above containing two or more sulfur atoms.
SMILES,Potency,"activity change, negative = cytotoxicity"
COC(=O)c1sc(NC(=S)NNC(=O)c2c(Br)c(C)nn2C)c(C(=O)OC)c1C,inactive,
CC(C)(C)C(=O)CNS(=O)(=O)c1ccc(S(=O)(=O)NC2CC2)cc1,inactive,

# (next part)

SMILES,Potency,"activity change, negative = cytotoxicity"
COCCn1c(N)c(N(Cc2ccccc2)C(=O)c2ccc(N3CCCC3=O)cc2)c(=O)[nH]c1=O,inactive,
Cc1cccc(N(C)S(=O)(=O)c2ccc(-c3cnc(C4CC4)o3)cc2)c1,"inconclusive: 0.58 µM [cytotoxic, full curve, poor fit]",
Cc1cc(NC(=O)Nc2cccc3ccccc23)no1,inactive,
COc1cc(/C=N\NC(C)=O)ccc1OC/C=C/c1ccccc1,,inconclusive: -21.1%
Cc1ccc(C(=O)COC(=O)c2cc(-c3ccccc3)nc3ccccc23)cc1C,inactive,
C/C(=N\NC(=O)c1ccoc1C)c1cccc2ccccc12,"inconclusive: 23.1 µM [cytotoxic, single point]",
CN(C)S(=O)(=O)c1ccc(Cl)c(NC(=O)CN2C(=O)NC3(CCc4ccccc43)C2=O)c1 (stereo unspecified),inactive,
Cc1c(C(=O)NCc2ccc(C(C)C)cc2)sc(=O)n1Cc1ccc(S(=O)(=O)N(C)C)cc1,active: 2.59 µM,
Cn1c(=O)c2cc(NC(=S)NC3CC3)ccc2n1C/C=C/c1ccccc1,inactive,
CC(=O)c1cccc(NC(=O)C2CCN(S(=O)(=O)c3ccc(F)cc3)CC2)c1,"inconclusive: 23.1 µM [cytotoxic, single point]",
COC(=O)c1ccc2[nH]c3cccc(/C(=C/c4ccccc4)c4ccccc4)c3c2c1,"inconclusive: 29.1 µM [cytotoxic, single point]",
O=C(c1cccc(Cl)c1)N1CCN(C2CCCCCC2)CC1,"inconclusive: 20.6 µM [cytotoxic, single point]",
O=C(NC(=S)Nc1ccccc1)c1cccs1,inactive,
O=C(CSc1nnc(CNC(=O)c2ccccc2)o1)NCc1ccco1,"inconclusive: 13 µM [rising, partial curve, poor fit]",
CCC(C)(C)n1nnnc1CN(Cc1cc2cc(OC)ccc2[nH]c1=O)C1CCCC1,active: 18.4 µM,
CC1CC(Nc2ccccc2)c2ccccc2N1C(=O)c1ccco1 (stereo unspecified),"inconclusive: 25.9 µM [cytotoxic, single point]",
COc1cccc(C(=O)COC(=O)CCC(=O)c2ccccc2)c1,inactive,
O=C(CSC1=NCCS1)N1CCN(c2ccc(Cl)cc2)CC1,"inconclusive: 29.1 µM [cytotoxic, single point]",
Cc1cc(SCC(=O)N/N=C/c2ccccc2C(=O)O)c(C)cc1Br,"inconclusive: 29.1 µM [rising, single point]",
C=CCn1c(SCC(=O)NC2CCCCC2)nc2ccccc2c1=O,"inconclusive: 3.66 µM [cytotoxic, full curve]",
COc1ccc(NC(=O)N2CCC(C(=O)c3ccc(F)cc3)CC2)cc1,"inconclusive: 16.4 µM [cytotoxic, single point]",
CCOC(=O)Nc1ccc(Oc2ccccc2)cc1,inactive,
O=C(O)CSc1nnnn1-c1ccc2c(c1)OCCO2,"inconclusive: 29.1 µM [rising, single point]",

# — PubChem BioAssay AID1347076 (National Center for Advancing Translational Sciences (NCATS), 2019)
